In article PMC5861252:
No constants are given. Whether binding was seen depends on the method and setting. In cells and extracts the contact can be indirect. Here binding means that the protein was enriched with, or labelled near, the bait; the list need not be complete. Where a sequence is shown, tags or fusion partners need not be part of it.

Target: T1, His-tagged Hha (His-Hha, plasmid pET15bHisHha) (UniProt P0ACE3)
T1 sequence: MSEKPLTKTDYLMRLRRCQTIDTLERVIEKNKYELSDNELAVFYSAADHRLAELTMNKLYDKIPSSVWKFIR
Test: affinity purification with mass spectrometry; purified His-Hha mixed with E. coli 042 total protein extract, purified again on Ni2+-agarose; the fraction coeluting with Hha analysed by LC-MS/MS; only the target purified

H-NS2 protein of E. coli strain 042 (endogenous)
binding: binds
